Results deposited as PubChem BioAssay AID1259308 (NCATS, 2017)
Assay: 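Genes whose loss raises luciferase production in HEK293 cells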 (primary screen). System: human HEK293 embryonic kidney cells stably expressing firefly luciferase (HEK-CMV-Luc2-Hygro). Knock-down reagent: single siRNA against human genes, 0.8 pmol siRNA per well. Time to read-out: 72 h. Detection: 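Luciferase light (ONE-Glo) measured on one replicate plate set and viability (CellTiter-Glo) on the other, scaled to a negative control siRNA, with robust z-scores and luciferase per cell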. Direction: total luciferase, z-score: higher = more reporter protein produced. Rule for the call: 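Active when the median/MAD z-score for overall luciferase is greater than 3; a gene was taken forward for validation with new siRNAs if at least two of its three siRNAs passed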. Meaning of the calls: active = raised luciferase; inactive = no rise.
Here is a random part of about 59,000 reagents. Over the whole deposit, about 1,510 (2.6%) were called active. 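Calls use total luciferase alone and ignore viability, so some active siRNAs may act by altering cell number.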 Unmarked entries are inactive. The numbers tell different reagents against one gene apart. Further read-outs or replicates are left out here.

SLC1A7 #1 → total luciferase, z-score = -0.76
SLC1A7 #2 → total luciferase, z-score = 0.794
SLC1A7 #3 → total luciferase, z-score = 0.683
SLC26A6 #1 → total luciferase, z-score = 3.32 (active)
SLC26A6 #2 → total luciferase, z-score = -0.238
SLC26A6 #3 → total luciferase, z-score = 1.47
RPH3A (rabphilin 3A) #1 → total luciferase, z-score = 0.691
RPH3A (rabphilin 3A) #2 → total luciferase, z-score = -0.799
RPH3A (rabphilin 3A) #3 → total luciferase, z-score = -0.00283
PLEKHH2 (pleckstrin homology, MyTH4 and FERM domain containing H2) #1 → total luciferase, z-score = 0.469
PLEKHH2 (pleckstrin homology, MyTH4 and FERM domain containing H2) #2 → total luciferase, z-score = -2.52
PLEKHH2 (pleckstrin homology, MyTH4 and FERM domain containing H2) #3 → total luciferase, z-score = 0.331
EEA1 (early endosome antigen 1) #1 → total luciferase, z-score = -0.0107
EEA1 (early endosome antigen 1) #2 → total luciferase, z-score = 0.205
EEA1 (early endosome antigen 1) #3 → total luciferase, z-score = -0.221
INPP5E (inositol polyphosphate-5-phosphatase E) #1 → total luciferase, z-score = -1.48
INPP5E (inositol polyphosphate-5-phosphatase E) #2 → total luciferase, z-score = -1.72
INPP5E (inositol polyphosphate-5-phosphatase E) #3 → total luciferase, z-score = 0.82

As entered above:
For “total luciferase, z-score”, PLEKHH2 (pleckstrin homology, MyTH4 and FERM domain containing H2) #1 shows 0.469
Under “total luciferase, z-score”, SLC26A6 #3 reads 1.47
EEA1 (early endosome antigen 1) #3, total luciferase, z-score → -0.221
Entry of INPP5E (inositol polyphosphate-5-phosphatase E) #3 in “total luciferase, z-score”: 0.82
Value for SLC26A6 #2 in “total luciferase, z-score”: -0.238
INPP5E (inositol polyphosphate-5-phosphatase E) #1, total luciferase, z-score = -1.48

The results go on:
PLEKHG1 (pleckstrin homology and RhoGEF domain containing G1) #1 → total luciferase, z-score = -1.44
PLEKHG1 (pleckstrin homology and RhoGEF domain containing G1) #2 → total luciferase, z-score = 0.687
PLEKHG1 (pleckstrin homology and RhoGEF domain containing G1) #3 → total luciferase, z-score = -1.63
ZNF705G (zinc finger protein 705G) #1 → total luciferase, z-score = 1.14
ZNF705G (zinc finger protein 705G) #2 → total luciferase, z-score = 0.591
ZNF705G (zinc finger protein 705G) #3 → total luciferase, z-score = 2.92
NUB1 (negative regulator of ubiquitin like proteins 1) #1 → total luciferase, z-score = 1.2
NUB1 (negative regulator of ubiquitin like proteins 1) #2 → total luciferase, z-score = 0.0562
NUB1 (negative regulator of ubiquitin like proteins 1) #3 → total luciferase, z-score = 0.648
NUFIP1 (nuclear FMR1 interacting protein 1) #1 → total luciferase, z-score = -0.0945
NUFIP1 (nuclear FMR1 interacting protein 1) #2 → total luciferase, z-score = 0.2
NUFIP1 (nuclear FMR1 interacting protein 1) #3 → total luciferase, z-score = -0.019
NOG (noggin) #1 → total luciferase, z-score = -0.0552
NOG (noggin) #2 → total luciferase, z-score = -1.09
NOG (noggin) #3 → total luciferase, z-score = 1.44
PRAMEF10 (PRAME family member 10) #1 → total luciferase, z-score = 0.309
PRAMEF10 (PRAME family member 10) #2 → total luciferase, z-score = -0.251
PRAMEF10 (PRAME family member 10) #3 → total luciferase, z-score = -0.188
ALDH1L2 (aldehyde dehydrogenase 1 family member L2) #1 → total luciferase, z-score = 0.408
ALDH1L2 (aldehyde dehydrogenase 1 family member L2) #2 → total luciferase, z-score = 0.641
ALDH1L2 (aldehyde dehydrogenase 1 family member L2) #3 → total luciferase, z-score = 1.85
DHX32 (DEAH-box helicase 32 (putative)) #1 → total luciferase, z-score = 1.59
DHX32 (DEAH-box helicase 32 (putative)) #2 → total luciferase, z-score = 0.377
DHX32 (DEAH-box helicase 32 (putative)) #3 → total luciferase, z-score = 0.367
